Drawing on publication PMC3348880, “MSMEG_2731, an Uncharacterized Nucleic Acid Binding Protein from Mycobacterium smegmatis, Physically Interacts with RPS1” (PLoS ONE, 2012), this text covers binding for two substances.

Amino acid sequences for entries named in this document (tags omitted).
UniProt A0QYY6: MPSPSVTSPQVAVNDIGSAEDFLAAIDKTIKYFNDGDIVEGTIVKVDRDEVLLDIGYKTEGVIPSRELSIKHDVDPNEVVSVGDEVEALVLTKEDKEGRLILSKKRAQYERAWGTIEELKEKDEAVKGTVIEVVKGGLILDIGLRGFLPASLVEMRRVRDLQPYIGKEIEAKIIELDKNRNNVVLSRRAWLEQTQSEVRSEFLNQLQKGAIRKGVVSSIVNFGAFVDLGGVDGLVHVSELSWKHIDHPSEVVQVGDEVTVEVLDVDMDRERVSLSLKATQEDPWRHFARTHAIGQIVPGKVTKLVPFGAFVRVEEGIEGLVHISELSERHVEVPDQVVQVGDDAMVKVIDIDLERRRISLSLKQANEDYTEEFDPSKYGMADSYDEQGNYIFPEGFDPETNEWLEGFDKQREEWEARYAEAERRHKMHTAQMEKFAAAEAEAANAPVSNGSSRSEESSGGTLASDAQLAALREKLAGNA

The assay addresses T1, GST-MSMEG_2731 (M. smegmatis) (UniProt A0QVX6).
T1 sequence: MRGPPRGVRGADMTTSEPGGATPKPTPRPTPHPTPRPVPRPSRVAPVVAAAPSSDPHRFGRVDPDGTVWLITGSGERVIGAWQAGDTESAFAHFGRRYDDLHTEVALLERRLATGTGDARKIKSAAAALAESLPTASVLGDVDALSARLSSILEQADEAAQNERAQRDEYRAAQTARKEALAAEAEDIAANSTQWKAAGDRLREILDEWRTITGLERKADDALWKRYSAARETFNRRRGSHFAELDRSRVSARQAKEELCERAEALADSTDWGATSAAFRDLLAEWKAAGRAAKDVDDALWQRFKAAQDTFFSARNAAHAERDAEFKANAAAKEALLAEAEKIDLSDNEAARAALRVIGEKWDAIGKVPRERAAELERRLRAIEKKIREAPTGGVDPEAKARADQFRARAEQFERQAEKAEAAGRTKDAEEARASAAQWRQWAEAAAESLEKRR
The assay can be described thus: affinity purification with mass spectrometry; purified GST-MSMEG_2731 or GST incubated with M. smegmatis cell lysate 4 h in 50 mM Tris-HCl pH 7.4, 150 mM NaCl, 1 mM EDTA, 0.1% Triton X-100; glutathione-Sepharose 4B; bands excised, LC-MS/MS; only the target purified.

Results are given in words; binding and its absence hold for the method and conditions named. Binding seen in cells or lysates may run through a third protein. These calls come from enrichment with a bait or labelling near it, and not all partners need be listed. Tags and fused reporters may be left off the sequences shown.

As for “30S ribosomal protein S1 [Mycobacterium smegmatis str. MC2 155], endogenous (from UniProt A0QYY6 1-479)”, the binding entry is reported as “binds”.

Turning to translation initiation factor IF-2, the binding result is “binds”.
